Source: patent publication US5847074A (Kyowa Hakko Kogyo Co., Ltd., priority 1993, dated 1998)

Test: general procedure: Fmoc solid-phase peptide synthesis; Rink Amide-Resin or Rink Amide-MBHA-Resin; support resin with 4-(2,4-dimethoxyphenyl-Fmoc-aminomethyl)-phenoxy group; PyBOP/HOBt/NMM
Settings: whole synthesis, scale 60 mg resin

Substance	crude mass	isolated mass
CH3 (CH2)6 COCysLeuTyrArgLysMetArgLeuArgTyrProVal	62.4 mg	–
HCysLeuTyrArgLysMetArgLeuArgTyrProValCysNH2	52.6 mg	16.5 mg
